Measured values taken from PubChem BioAssay AID2685 (National Center for Advancing Translational Sciences (NCATS), 2010).
Hit rate of the full screen: of about 320,000 compounds, about 2,100 (0.66%) were called active. Inconclusive results, whose numbers are uncertain, are shown with a selection of clear calls. Calls follow the shape of the dose curve; as a rule, active = well fitted inhibition curve with a large enough effect in the signal ratio, with a control signal flat (not every such curve was filed as active); inconclusive = small, poorly fitted or top-dose-only effect, or effect the other way, or a change in a side signal; inactive = flat fitted curve, though single readings scatter; the % refers to the signal ratio. A potency beside an inconclusive call is a rough fit, not a confirmed value.

Assay: qHTS Assay for Lipid Storage Modulators in Drosophila S3 Cells
Details: BODIPY lipid droplet fluorescence, 18-24 h, cells fed with added oleic acid; lipid storage change, negative = inhibition: at 46.1 µM (top of the series) unless noted
Procedure, shortened: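 Drosophila S3 cells loaded with oleic acid (400 uM, as added) and compounds at several concentrations; lipid droplets imaged by 488-nm laser-scanning cytometry, 500–530 nm intensity and object ratio to cell channel. Percent activity normalized to 20 uM Triacsin C.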
% is scaled to controls: 0 for no effect and ±100 for the full control effect; potency is read from the fitted curve at half-maximal effect.

SMILES | lipid storage change, negative = inhibition | Potency
CCc1ccc(-n2c(=S)sc3c(=O)n(-c4ccccc4C)c(SCC(=O)O)nc32)cc1 | inconclusive: 81.5% | –
CC1CCN(S(=O)(=O)N2CCC(C(=O)NCCC3=CCCCC3)CC2)CC1 | inconclusive: 13.7% [at 9.22 µM] | –
CN(c1ccc(OC(=O)CN2C(=O)NC3(CCCC3)C2=O)cc1)S(=O)(=O)c1ccccc1 | inconclusive: 0.0314% | –
COCCCn1c(SCC(=O)N2CC(=O)Nc3ccccc32)nnc1-c1ccoc1C | inconclusive: 24.2% | –
CC(=O)c1ccc(OCC(=O)OCC(=O)Nc2sccc2C(N)=O)cc1 | – | active: 3.66 µM
CCCc1cc(C(=O)OC)c(NC(=O)CCCC(=O)O)s1 | inconclusive: 1.05% | –
COc1ccccc1-c1nc(SC)n[nH]1 | inconclusive: 8.68% | –
CCOC(=O)[C@H]1[C@H]2COc3cc(OC)ccc3[C@@H]2N2C(=O)c3cc(C)ccc3NC(=O)[C@@]12C | – | inconclusive: 0.092 µM [falling, full curve, poor fit]
O=C(Cc1ccc(O)cc1)NCCNC(=S)NCc1ccccc1 | inconclusive: -29.5% | –
CNC(=S)N1CCc2ccccc2C1 | – | inconclusive: 0.092 µM [activator, full curve]
CC1NC(=O)N(C)C2NC(=O)N(C)C(c3ccccc3)C12 (stereo not given) | inconclusive: 76.3% | –
COc1ccc(NC(=O)COC(=O)c2ccc(-n3cnnn3)cc2)cc1Cl | inconclusive: 8.18% | –
CCC(C(=O)N(C(C)C)C(C)C)c1ccccc1 (stereo not given) | inactive | –
Cc1ccc(-c2nc(C#N)c(NCc3ccco3)o2)cc1 | – | inconclusive: 29.1 µM [activator, single point]
O=C(O)/C=C/C(=O)NCC1CCC(CNC(=O)/C=C/C(=O)O)CC1 (stereo not given) | inconclusive: -27.2% | –
CCCn1nnc(NC(=O)c2ccc(-c3cccc(Cl)c3)o2)n1 | inconclusive: -29.8% | –
Cc1cccc(Cn2nc(-n3cccc3)c3c(C)cc(C)nc32)c1 | inconclusive: 14.7% | –
CN(CC(=O)Nc1ccccc1C(F)(F)F)C(=O)CSCc1ccc(Cl)c(Cl)c1 | inconclusive: -3.66% | –
COc1ccc(CC(=O)OC(C)C(=O)NC2CCCCC2C)cc1 (stereo not given) | inconclusive | –
N#Cc1ccc(C(=O)N2CCN(c3ncccn3)CC2)cc1 | inconclusive: 17.6% | –
N#C/C(=C/c1ccco1)c1nc2ccccc2s1 | – | inconclusive: 0.461 µM [falling, full curve, poor fit]
COC(=O)c1ccc(SC)cn1 | inconclusive: -12.6% | –
O=C1CCCN1C(=O)COc1cc(F)ccc1[N+](=O)[O-] | inconclusive: 14.4% | –
COc1ccc(Br)c(C(=O)NC2CCCC2)c1 | inconclusive: -3.69% | –
COc1cccc(-c2nc(CS(=O)CC(=O)O)c(C)o2)c1 (stereo not given) | inconclusive: 31.8% | –
CCCn1cc(CN2CCCC(CNC(=O)c3ccc(F)cc3)C2)c(C)n1 (stereo not given) | – | inconclusive: 6.51 µM [falling, single point]
c1ccc(CC2CCN(C(c3cccs3)c3nnnn3C3CCCC3)CC2)cc1 (stereo not given) | – | inconclusive: 0.092 µM [rising, full curve, poor fit]

SMILES | lipid storage change, negative = inhibition | Potency
CSc1ccc(S(=O)(=O)Nc2ccc(NC(C)=O)cc2)cc1 | – | inconclusive: 18.4 µM [activator, single point]
Cc1nn(CC(=O)c2ccccc2)c(=O)c2nn(-c3ccccc3F)c(C)c12 | inconclusive: 32.7% | –
COc1ccc(CCNCC(O)Cn2c3ccccc3c3ccccc32)cc1OC (stereo not given) | inconclusive: -58.1% [cytotoxic] | –
Cc1ccccc1S(=O)(=O)NC1OC(=O)C(Cl)=C1Cl (stereo not given) | inconclusive: -8.85% | –
COc1cc(NC(=O)c2ccco2)c(OC)cc1NC(=O)CCC(=O)Nc1cc(C)cc(C)c1 | inconclusive: -85.1% | –
CC12CCC(=O)N1C(C(=O)NCc1ccccc1Cl)CS2 (stereo not given) | – | inconclusive: 29.1 µM [activator, single point]
O=C(Nc1ccc(F)cc1)C(Sc1nnc2ccccn12)c1ccccc1 (stereo not given) | inconclusive: 0.581% | –
O=C(CN1CCN(CC(=O)Nc2ccccc2Cl)CC1)Nc1ccc(F)c(F)c1 | inconclusive: -8.72% | –
C/C(=N\NC(=O)Cc1cccn1C)c1ccc([N+](=O)[O-])cc1 | inactive | –
CN(C)C(C)(C)C#CCC(c1ccccc1)c1ccccc1 | inconclusive: 0.701% | –
CCN(CC)c1ccc(CNc2ccc3c(c2)ncn3C(C)(C)C)cc1 | – | inconclusive: 32.6 µM [falling, single point]
O=C(OCC(=O)N1CCCC1=O)c1cc(Cl)ccc1O | inconclusive: -14.7% | –
Cc1cc(C)c(C)c(S(=O)(=O)Nc2ccc(OCC(=O)O)cc2)c1C | – | inconclusive: 0.103 µM [falling, full curve, poor fit]
C[N+]1(CCNC(=O)/C=N/O)CCCCC1 | inconclusive: -24.7% | –
COC(=O)c1cccc(Nc2ccc([N+](=O)[O-])cn2)c1 | inconclusive: 2.12% | –
O=C(NCc1ccc(F)cc1)C1CCC(CNc2c(N3CCCCC3)c(=O)c2=O)CC1 (stereo not given) | inconclusive: 7.33% | –
COc1ccc(C(NC(=O)CNC(C)=O)C(=O)Nc2ccc(C(C)C)cc2)cc1 (stereo not given) | inconclusive: -8.48% | –
CCOC(=O)C(C(C)=O)C(c1ccc(OCCC(C)C)cc1)C(C(C)=O)C(=O)OCC (stereo not given) | inconclusive: -23.6% | –
N=c1c(C(=O)NCCN2CCOCC2)cc2c(=O)n3ccccc3nc2n1Cc1ccc(F)cc1 | inconclusive: 17.9% | –
COCCCn1c(=NC(C)=O)c(C#N)cc2c(=O)n3cccc(C)c3nc21 | inactive | –
CCOC(=O)c1sc(NC(=O)c2cccc(S(=O)(=O)N3c4ccccc4CC3C)c2)cc1C (stereo not given) | inconclusive: 16.9% | –
CCOC(=O)c1cc(C(=O)OCC)cc(-n2cc(O)c(C(=O)OCC)n2)c1 | – | inconclusive: 29.1 µM [falling, single point]
CC(=O)c1ccc(N2CCN(C(=O)CCC(=O)Nc3ccc4nc(N5CCN(C)CC5)cc(C)c4c3)CC2)cc1 | – | inconclusive: 10.3 µM [activator, partial curve]
CN(CC(=O)Nc1ccc(S(=O)(=O)N2CCCC2)cc1)Cc1ccc(Cl)cc1 | – | inconclusive: 7.31 µM [falling, partial curve]
O=C1CN(C(=O)COC(=O)c2cccc(Br)c2)c2ccccc2N1 | – | inconclusive: 13 µM [activator, partial curve]
Nc1c(S(=O)(=O)c2cccs2)c2nc3ccccc3nc2n1CCc1ccccc1 | inconclusive: -31.3% | –
COc1ccc(C)c2sc(NC(=O)c3cccc(N4C(=O)CCC4=O)c3)nc12 | inconclusive: -29.7% | –

Two neighbouring compounds out of the list so far:
SMILES | lipid storage change, negative = inhibition | Potency
COCCCn1c(=NC(C)=O)c(C#N)cc2c(=O)n3cccc(C)c3nc21 | inactive | –
CCOC(=O)c1sc(NC(=O)c2cccc(S(=O)(=O)N3c4ccccc4CC3C)c2)cc1C (stereo not given) | inconclusive: 16.9% | –

(next part)

SMILES | lipid storage change, negative = inhibition | Potency
O=[N+]([O-])c1ccc(Oc2cc(NC3CCCCCCC3)c([N+](=O)[O-])cc2[N+](=O)[O-])cc1 | inconclusive: 31.8% | –
Cc1cc(C)cc(C(=O)Nc2cccnc2)c1 | – | inconclusive: 14.6 µM [activator, partial curve]
Cc1cccc(C(=O)N(Cc2cccs2)C2CCS(=O)(=O)C2)c1 (stereo not given) | inconclusive: 10.8% | –
COc1cc(OC)cc(C(=O)NC2=NCCS2)c1 | inconclusive: 5.87% | –
CN(C)/C=C(\C#N)C(=O)Nc1ccccc1 | – | inconclusive: 6.51 µM [activator, single point]
Cc1cccc(NC(=O)Cn2cc(C(=O)c3ccco3)c3ccccc32)c1 | inconclusive: -55.1% | –
CC(=O)c1ccc(OCC(=O)OC(C)C(=O)NC2CCCCC2C)cc1 (stereo not given) | inconclusive: -9.5% | –
CNc1ccncc1S(=O)(=O)NC | inconclusive: -12.2% | –
Cc1nc2cc(NC(=O)c3ccc([N+](=O)[O-])s3)ccc2s1 | inconclusive: -8.01% | –
CC1CCN(CC(=O)N2CCN(c3ccccc3)CC2)CC1 | inconclusive: -41.8% | –
CCOC(=O)CCNC(=O)N1CCCC(C(=O)c2ccccc2SC)C1 (stereo not given) | – | inconclusive: 5.17 µM [falling, full curve, poor fit]
Cc1ccc(S(=O)(=O)NC2=NCN(C3CCN(Cc4ccccc4)CC3)CN2)cc1 | inconclusive: -19.6% | –
CC(=O)c1cccc(NC(=O)COc2cc3oc(=O)c(CC(C)O)c(C)c3cc2Cl)c1 (stereo not given) | inconclusive: -21.7% | –
COc1ccc(COc2ccccc2C(N)=O)cc1F | inconclusive: 33.6% | –
CC(=O)NC1(c2ccccc2)CCN(Cc2nnnn2C(C)(C)C)CC1 | inconclusive: 20.6% | –
O=C(CSc1nc2c(cnn2-c2ccccc2)c(=O)[nH]1)N1CCOCC1 | inconclusive: -13.6% | –
Cc1cc(C)c(S(=O)(=O)N/N=C/c2ccc([N+](=O)[O-])o2)c(C)c1 | – | inconclusive: 29.1 µM [activator, single point]
CCCCOC(=O)C1=C(C)Nc2ncnn2C1c1ccc(OCC)c(OC)c1 (stereo not given) | inconclusive: -26.3% | –
Cc1ccc(C)c(Nc2nc(N)c3ccccc3n2)c1 | inconclusive: 43.9% | –
CC(C)Nc1nc(NC(C)C)nc(C(N)=O)n1 | – | inconclusive: 0.184 µM [falling, full curve, poor fit]
O=C(CNc1ccc(F)cc1)c1ccccc1 | inconclusive: -0.237% | –
CCn1nnnc1SCC(=O)c1ccc(C)cc1C | inconclusive: -6.1% | –
COC(=O)c1c(NC(=O)CN2CCN(c3ccccc3OC)CC2)c2c(C)cccc2n1C | inconclusive: 12.4% | –
CC1=C(C)CC(C(=O)NC2CCCC2)C(C(=O)O)C1 (stereo not given) | inconclusive: 196% | –
C/C(N)=C(/C#N)C(=O)COC(=O)c1ccc(OCC2CCCO2)cc1 (stereo not given) | inconclusive: 45.7% | –
N#CC1=C(N)C2=CCCC[C@H]2[C@H](c2ccc(Br)cc2)C1(C#N)C#N | inconclusive: -24.1% | –

Whole records, looked up by structure:
`Cc1ccc(C)c(Nc2nc(N)c3ccccc3n2)c1` as listed: lipid storage change, negative = inhibition: inconclusive: 43.9%
`Cc1nc2cc(NC(=O)c3ccc([N+](=O)[O-])s3)ccc2s1` as listed: lipid storage change, negative = inhibition: inconclusive: -8.01%

Given as labelled records: entries from further up
Cc1cccc(C(=O)N(Cc2cccs2)C2CCS(=O)(=O)C2)c1 (stereo not given)
  lipid storage change, negative = inhibition: inconclusive: 10.8%
COc1cc(OC)cc(C(=O)NC2=NCCS2)c1
  lipid storage change, negative = inhibition: inconclusive: 5.87%
